Values from PubChem BioAssay AID504774 (Drosophila RNAi Screening Center, 2011)
The deposit covers about 23,000 reagents; shown is an unselected part of those with a known target gene and a result. 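Values are quantile-normalised luminescence on an arbitrary scale; higher means more cells surviving MMS.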 Reagents against one gene are numbered here. Not all columns of the deposit are shown.

- Test: 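Fly genes whose loss alters survival after alkylation damage to DNA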 (primary screen)
- Cell system: Drosophila Kc167 cells
- Reagents: long dsRNA against Drosophila genes, about 0.25 µg dsRNA per well
- Duration: about 6 days: 3 days knock-down, then 3 days with or without MMS
- Conditions: methyl methanesulphonate 0.004% (w/v) for 3 days after knock-down
- Detection: 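ATP-dependent luminescence as a measure of live cells in MMS-exposed wells, quantile normalised within each plate, with replicate values also given as a mean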
- Reading the numbers: mean viability with MMS and viability with MMS: higher = more surviving cells after MMS

With knock-down of CG4853 the results were mean viability with MMS 3.73e6; viability with MMS, replicate 1 = 4.24e6.
With knock-down of Ctl2, the record shows mean viability with MMS 3.58e6; viability with MMS, replicate 1 = 4.04e6.
With knock-down of CG3862, the record shows mean viability with MMS 3.68e6; viability with MMS, replicate 1 = 4.00e6.
With knock-down of CG33475 the results were mean viability with MMS 3.63e6; viability with MMS, replicate 1 = 4.12e6.
With knock-down of CG10669, the screen gave mean viability with MMS 3.24e6; viability with MMS, replicate 1 = 3.66e6.
With knock-down of CG15461 the results were mean viability with MMS 3.66e6; viability with MMS, replicate 1 = 4.14e6.
Depletion of GC1 came out at: mean viability with MMS 3.47e6; viability with MMS, replicate 1 = 3.98e6.
For ced-6, the entry reads mean viability with MMS 3.53e6; viability with MMS, replicate 1 = 3.83e6.
For CG2111, the values are mean viability with MMS 3.76e6; viability with MMS, replicate 1 = 4.34e6.
Against CG14763, the values are mean viability with MMS 3.54e6; viability with MMS, replicate 1 = 4.06e6.
After knock-down of CG32512 #1, the screen gave mean viability with MMS 3.53e6; viability with MMS, replicate 1 = 3.91e6.
Silencing of CG32512 #2 came out at: mean viability with MMS 3.41e6; viability with MMS, replicate 1 = 3.85e6.
For CG32512 #3, the values are mean viability with MMS 3.55e6; viability with MMS, replicate 1 = 4.06e6.
Against cav, the values are mean viability with MMS 3.62e6; viability with MMS, replicate 1 = 4.10e6.
Silencing of CG12307 resulted in: mean viability with MMS 3.39e6; viability with MMS, replicate 1 = 3.73e6.
Against RpL38, the values are mean viability with MMS 3.24e6; viability with MMS, replicate 1 = 3.68e6.
Against path the deposit lists mean viability with MMS 3.53e6; viability with MMS, replicate 1 = 4.01e6.
UGP scored mean viability with MMS 3.69e6; viability with MMS, replicate 1 = 4.19e6.
With knock-down of ND-B15, the screen gave mean viability with MMS 3.44e6; viability with MMS, replicate 1 = 4.00e6.
After knock-down of Eip78C #1 the results were mean viability with MMS 2.99e6; viability with MMS, replicate 1 = 3.59e6.
Depletion of Eip78C #2 resulted in: mean viability with MMS 3.51e6; viability with MMS, replicate 1 = 3.80e6.
Knock-down of fl(2)d came out at: mean viability with MMS 3.54e6; viability with MMS, replicate 1 = 4.04e6.
Silencing of croc came out at: mean viability with MMS 3.62e6; viability with MMS, replicate 1 = 4.03e6.
CG17601 scored mean viability with MMS 3.50e6; viability with MMS, replicate 1 = 3.95e6.
With knock-down of CG1532, the record shows mean viability with MMS 3.68e6; viability with MMS, replicate 1 = 3.96e6.
Knock-down of ush came out at: mean viability with MMS 3.79e6; viability with MMS, replicate 1 = 4.43e6.
With knock-down of CG7272, the record shows mean viability with MMS 3.52e6; viability with MMS, replicate 1 = 4.00e6.
CG10051 gave mean viability with MMS 3.71e6; viability with MMS, replicate 1 = 4.14e6.
After knock-down of CG9483, the record shows mean viability with MMS 3.44e6; viability with MMS, replicate 1 = 3.83e6.
After knock-down of CG1288, the screen gave mean viability with MMS 3.41e6; viability with MMS, replicate 1 = 3.91e6.
Against p38b the deposit lists mean viability with MMS 3.68e6; viability with MMS, replicate 1 = 4.08e6.
Knock-down of Muc91C #1 gave: mean viability with MMS 3.57e6; viability with MMS, replicate 1 = 3.94e6.
Depletion of Muc91C #2 resulted in: mean viability with MMS 3.35e6; viability with MMS, replicate 1 = 3.91e6.
Dcr-1 showed mean viability with MMS 3.56e6; viability with MMS, replicate 1 = 4.09e6.
Depletion of usp gave: mean viability with MMS 3.37e6; viability with MMS, replicate 1 = 3.86e6.

Reformatted: results already given
predicted target	reagent	mean viability with MMS	viability with MMS, replicate 1
path	1	3.53e6	4.01e6
UGP	1	3.69e6	4.19e6
ND-B15	1	3.44e6	4.00e6
Eip78C	1	2.99e6	3.59e6
